According to PubChem BioAssay AID192 (DTP/NCI, 2004):
The list shows only some results of the screen, not a fair sample: it gathers tests that were run many times, whatever their T/C, doses with no T/C, and many T/C values between a quarter and a half above the control. Further doses and runs are listed elsewhere. T/C: endpoint of the treated group in % of that of the vehicle group. Some entries give survivors of the animals treated and no T/C: the source files T/C as zero there, which appears to mark a toxic dose or a test without result, not a measured value. Some survivor counts are full or nearly so, which does not show that the dose was tolerated: survival well below the control is almost never listed, so the zero probably covers shortened survival too. Survivors were counted at the toxicity check, usually on the fifth day, unless a day is given; later deaths do not show. Schedule codes are those of the source, taken here to give the interval after Q, in days (D) or hours (H), and the number of doses after X. Some entries hold several experiments; the results are listed from low to high. Signs of the kind (2×) stand for listed records that agree. Where survival is the endpoint, the PubChem record calls one and a half times the control and up active, and a quarter to a half above the control has no call in these data; cut-offs in other NCI protocols can differ. Some T/C values are followed by the survivors on the day toxicity was checked, most often the fifth; without a count, all were alive then.

Test system: BDF1 mice, B16 melanoma ip, median survival T/C
Assay: NCI In Vivo Anticancer Drug Screen. Data for tumor model B16 Melanoma (intraperitoneal) in B6D2F1 (BDF1) mice
Conditions: T/C endpoint: median survival time, higher T/C = longer survival
How it was run: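 Compounds were tested in mice carrying transplantable tumors. Survival or tumor size was recorded, and each value is the treated-group measurement (T) divided by that of the vehicle-treated control group (C).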

With `CC[C@]1(O)C[C@H]2CN(CCc3c([nH]c4ccccc34)[C@@](C(=O)OC)(c3cc4c(cc3OC)N(C=O)[C@H]3[C@@](O)(C(=O)OC)[C@H](OC(C)=O)[C@]5(CC)C=CCN6CC[C@]43[C@@H]65)C2)C1` the T/C (dose: 0.03 mg/kg/injection, schedule: Q01DX009 (ip), vehicle: saline) was 145 % of control, the T/C (dose: 0.03 mg/kg/injection, schedule: Q01DX017 (ip), vehicle: saline) was 131 % of control and the T/C (dose: 0.05 mg/kg/injection, schedule: Q01DX009 (ip), vehicle: saline) was 126 and 148 % of control. The T/C (dose: 0.06 mg/kg/injection, schedule: Q01DX009 (ip), vehicle: saline) was 145 % of control, the T/C (dose: 0.06 mg/kg/injection, schedule: Q01DX009 (ip), vehicle: water) was 135 % of control and the T/C (dose: 0.07 mg/kg/injection, schedule: Q01DX009 (ip), vehicle: saline) was 138 % of control. For the same compound, the T/C (dose: 0.08 mg/kg/injection, schedule: Q01DX009 (ip), vehicle: water) was 137 % of control [9 of 10 alive], the T/C (dose: 0.1 mg/kg/injection, schedule: Q01DX009 (ip), vehicle: saline) was 143 and 146 % of control and the T/C (dose: 0.12 mg/kg/injection, schedule: Q01DX009 (ip), vehicle: saline) was 143 % of control. The T/C (dose: 0.13 mg/kg/injection, schedule: Q01DX009 (ip), vehicle: saline, evaluated on day 5) was 160 % of control, the T/C (dose: 0.13 mg/kg/injection, schedule: Q01DX009 (ip), vehicle: saline, evaluated on day 60) was 134, 140, 150, 165 % of control and the T/C (dose: 0.13 mg/kg/injection, schedule: Q01DX009 (ip), vehicle: saline, evaluated on day 90) was 160 % of control. For the same compound, the T/C (dose: 0.13 mg/kg/injection, schedule: Q01DX009 (ip), vehicle: water, evaluated on day 45) was 163 % of control, the T/C (dose: 0.13 mg/kg/injection, schedule: Q01DX009 (ip), vehicle: water, evaluated on day 60) was 127, 130, 147, 162 % of control and the T/C (dose: 0.15 mg/kg/injection, schedule: Q04DX003 (ip), vehicle: saline) was 129 % of control. The T/C (dose: 0.2 mg/kg/injection, schedule: Q04DX003 (ip), vehicle: water) was 134 % of control, the T/C (dose: 0.22 mg/kg/injection, schedule: Q01DX009 (ip), vehicle: water) was 134 and 148 % of control and the T/C (dose: 0.23 mg/kg/injection, schedule: Q04DX003 (ip), vehicle: saline) was 134 % of control. For the same compound, the T/C (dose: 0.25 mg/kg/injection, schedule: Q01DX009 (ip), vehicle: saline, evaluated on day 5) was 171 % of control, the T/C (dose: 0.25 mg/kg/injection, schedule: Q01DX009 (ip), vehicle: saline, evaluated on day 45) was 120 (2×), 147, 150, 171 % of control and the T/C (dose: 0.25 mg/kg/injection, schedule: Q01DX009 (ip), vehicle: saline, evaluated on day 60) was 105, 110 (2×), 111, 115 [5 of 6 alive], 116, 121, 130, 140, 145, 150 (2×), 150 [5 of 6 alive] (2×), 152, 154, 156, 158, 161, 167, 168, 170 (3×), 171, 176 [5 of 6 alive], 182, 200, 212 % of control. For the same compound, the T/C (dose: 0.25 mg/kg/injection, schedule: Q01DX009 (ip), vehicle: saline, evaluated on day 90) was 171 % of control [9 of 10 alive], the T/C (dose: 0.25 mg/kg/injection, schedule: Q01DX009 (ip), vehicle: water) was 141 % of control and the T/C (dose: 0.25 mg/kg/injection, schedule: Q04DX003 (ip), vehicle: saline) was 127, 129, 135 % of control. The T/C (dose: 0.25 mg/kg/injection, schedule: Q04DX005 (ip), vehicle: saline) was 145 % of control, the T/C (dose: 0.3 mg/kg/injection, schedule: Q04DX003 (ip), vehicle: saline) was 149 % of control and the survivor count (dose: 0.36 mg/kg/injection, schedule: Q01DX009 (ip), vehicle: water) was 10 of 10. For the same compound, the T/C (dose: 0.36 mg/kg/injection, schedule: Q04DX003 (ip), vehicle: saline) was 147 % of control, the T/C (dose: 0.38 mg/kg/injection, schedule: Q04DX003 (ip), vehicle: saline) was 133 % of control and the T/C (dose: 0.39 mg/kg/injection, schedule: Q04DX003 (ip), vehicle: water) was 131 % of control. The T/C (dose: 0.4 mg/kg/injection, schedule: Q01DX009 (ip), vehicle: saline) was 142 % of control [5 of 6 alive], the T/C (dose: 0.4 mg/kg/injection, schedule: Q04DX003 (ip), vehicle: saline) was 145 % of control and the T/C (dose: 0.4 mg/kg/injection, schedule: Q04DX003 (ip), vehicle: water) was 147 % of control. For the same compound, the T/C (dose: 0.5 mg/kg/injection, schedule: Q01DX005 (ip), vehicle: saline) was 134 % of control, the T/C (dose: 0.5 mg/kg/injection, schedule: Q01DX009 (ip), vehicle: saline, evaluated on day 5) was 64 % of control and the T/C (dose: 0.5 mg/kg/injection, schedule: Q01DX009 (ip), vehicle: saline, evaluated on day 45) was 125 and 143 % of control. The T/C (dose: 0.5 mg/kg/injection, schedule: Q01DX009 (ip), vehicle: saline, evaluated on day 60) was 87, 91 [5 of 6 alive], 100 (2×), 114, 130, 134, 140, 145, 155, 165, 175, 179, 182, 194 % of control [5 of 6 alive], the survivor count (dose: 0.5 mg/kg/injection, schedule: Q01DX009 (ip), vehicle: saline) was 5 of 6, 10 of 10, 6 of 6 (2×) and the T/C (dose: 0.5 mg/kg/injection, schedule: Q04DX003 (ip), vehicle: saline) was 132 and 141 % of control. The survivor count (dose: 0.6 mg/kg/injection, schedule: Q01DX009 (ip), vehicle: water) was 10 of 10, the T/C (dose: 0.65 mg/kg/injection, schedule: Q04DX003 (ip), vehicle: water) was 130 and 140 % of control and the survivor count (dose: 0.8 mg/kg/injection, schedule: Q01DX009 (ip), vehicle: saline) was 3 of 6 and 6 of 6. For the same compound, the T/C (dose: 0.8 mg/kg/injection, schedule: Q04DX003 (ip), vehicle: saline) was 143 % of control.
